In PMC12401969, “The gut microbiota protein BOC1 exhibits immune checkpoint inhibitor-like activity by inhibiting myeloid-derived suppressor cell differentiation” (Frontiers in Immunology, 2025):
No constants are given. Whether binding was seen depends on the method and setting. Binding calls can cover weak binding; strength is not graded here.

Legend:
biotinylated CD200R1 [1] = target: T1, biotinylated CD200R1 (UniProt Q8TD46 29-265, biotin (site not stated)); experiment: AlphaScreen or HTRF; AlphaLISA screen in 384-well plates, 20 µL; 0.3 nM biotinylated CD200R1 (streptavidin Donor beads) with His-tagged cell-free library proteins at one dilution (1/25; anti-6His Acceptor beads); ImmunoAssay buffer, room temperature; positive = signal 3-fold above the mean of the plates, confirmed with a new synthesis batch; only the target purified
T1 construct: CD200R1 (CD200 receptor 1), soluble biotinylated protein; Held on streptavidin Donor beads in the AlphaLISA; also called CD200R1-(biot)
T1 sequence (looked up): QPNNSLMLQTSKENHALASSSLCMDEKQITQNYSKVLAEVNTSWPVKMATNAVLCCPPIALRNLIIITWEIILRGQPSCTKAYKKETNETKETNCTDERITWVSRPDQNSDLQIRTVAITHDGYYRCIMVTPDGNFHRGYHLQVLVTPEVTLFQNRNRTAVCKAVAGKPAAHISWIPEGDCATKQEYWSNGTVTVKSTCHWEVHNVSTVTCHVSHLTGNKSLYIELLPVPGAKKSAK

biotinylated CD200R1 [2] = target: T1, biotinylated CD200R1; experiment: AlphaScreen or HTRF; AlphaLISA; CD200R1-(biot)/CD200-His or CD200R1-(biot)/BOC1-His complex (each protein at 3 nM) with an anti-CD200R1 antibody (30 nM); read as remaining activity and % inhibition; both purified
biotinylated CD200R1 [3] = target: T1, biotinylated CD200R1; experiment: AlphaScreen or HTRF; AlphaLISA; 0.3 nM CD200R1-(biot) incubated with 3 nM CD200-Fc, dose response (0.1 to 100 nM) of BOC1-His; signal from CD200R1-(biot) with BOC1-His; both purified
biotinylated CD200R1 [4] = target: T1, biotinylated CD200R1; experiment: AlphaScreen or HTRF; AlphaLISA competition; 0.3 nM CD200R1-(biot) and 3 nM CD200-His, or the CD200R1-(biot)/BOC1-His complex, with a dose response of CD200-Fc (0.1 to 100 nM), 1 h at room temperature; read as % dissociation of the complex; both purified

For BOC5, the binding (biotinylated CD200R1 [1]) was “binds”.

For “BOC1-His (Bacteroides genus (human gut microbiota))”, the binding (biotinylated CD200R1 [2]) was “binds”, the binding (biotinylated CD200R1 [1]) was “binds” and the binding (biotinylated CD200R1 [3]) was “binds”. The binding (biotinylated CD200R1 [4]) was “binds”.
